These results are taken from publication doi:10.1101/806802.

Assay [1] deals with EDR1^D810A, full-length substrate-trap mutant, GAL4 DNA-binding domain fusion (Arabidopsis thaliana) (UniProt Q9FPR3). As to the kind of experiment: two-hybrid.
The target of assay [2] is EDR1 (ENHANCED DISEASE …1), full-length, GAL4 DNA-binding domain fusion (Arabidopsis thaliana) (UniProt Q9FPR3). The assay is described as follows: two-hybrid.
The target in assay [3] is EDR1-sYFP (Arabidopsis thaliana) (UniProt Q9FPR3). The assay is described as follows: co-IP.
Assay [4] addresses T1, PAD4-mCherry (Arabidopsis thaliana) (UniProt Q9S745).
T1 sequence: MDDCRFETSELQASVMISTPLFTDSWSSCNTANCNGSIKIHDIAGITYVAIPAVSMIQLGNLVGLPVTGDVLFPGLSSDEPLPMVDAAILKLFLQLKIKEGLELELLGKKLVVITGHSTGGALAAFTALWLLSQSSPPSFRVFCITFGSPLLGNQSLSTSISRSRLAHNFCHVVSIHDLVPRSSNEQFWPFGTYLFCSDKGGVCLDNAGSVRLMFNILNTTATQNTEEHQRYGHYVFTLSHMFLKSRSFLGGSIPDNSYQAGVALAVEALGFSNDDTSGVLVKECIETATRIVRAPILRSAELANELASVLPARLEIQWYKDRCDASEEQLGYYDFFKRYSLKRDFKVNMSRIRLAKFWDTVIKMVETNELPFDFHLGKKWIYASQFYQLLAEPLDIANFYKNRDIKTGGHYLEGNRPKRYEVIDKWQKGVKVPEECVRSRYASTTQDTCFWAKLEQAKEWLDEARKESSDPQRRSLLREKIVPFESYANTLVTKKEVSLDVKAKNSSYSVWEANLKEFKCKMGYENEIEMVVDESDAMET
As to the kind of experiment: co-IP.

For assay [5], the target named is EDR1^ST-sYFP (D810A) (Arabidopsis thaliana) (UniProt Q9FPR3). As to the kind of experiment: co-IP.
For assay [6], the target named is T2, EDS1, full-length, GAL4 DNA-binding domain fusion in pBridge (Arabidopsis thaliana) (UniProt Q9SU72).
T2 sequence: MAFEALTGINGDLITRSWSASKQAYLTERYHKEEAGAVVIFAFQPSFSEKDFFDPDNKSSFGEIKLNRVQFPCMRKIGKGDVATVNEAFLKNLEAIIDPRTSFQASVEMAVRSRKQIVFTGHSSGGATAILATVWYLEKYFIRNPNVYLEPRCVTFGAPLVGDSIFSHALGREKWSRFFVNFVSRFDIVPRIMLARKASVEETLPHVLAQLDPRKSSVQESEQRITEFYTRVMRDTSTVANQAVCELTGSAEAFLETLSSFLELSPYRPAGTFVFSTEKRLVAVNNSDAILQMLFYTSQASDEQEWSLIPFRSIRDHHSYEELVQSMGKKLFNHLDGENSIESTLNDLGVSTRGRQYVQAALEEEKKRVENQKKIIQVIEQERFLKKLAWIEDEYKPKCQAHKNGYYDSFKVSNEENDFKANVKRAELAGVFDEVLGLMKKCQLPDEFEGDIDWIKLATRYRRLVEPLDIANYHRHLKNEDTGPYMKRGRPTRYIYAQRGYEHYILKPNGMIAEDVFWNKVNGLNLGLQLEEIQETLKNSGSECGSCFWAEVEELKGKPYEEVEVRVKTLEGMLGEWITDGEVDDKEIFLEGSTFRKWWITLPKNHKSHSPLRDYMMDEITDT
As to the kind of experiment: two-hybrid.

In assay [7] the target is T2, EDS1, full-length, GAL4 DNA-binding domain fusion in pBridge (Arabidopsis thaliana). The assay is described as follows: yeast three-hybrid.

No constants are given. Whether binding was seen depends on the method and setting. For part of these data: Binding seen in cells or lysates may run through a third protein. Some binding calls cover weakened binding; strength is not graded here. For part of these data: Tags and fused reporters may be left off the sequences shown.

B1: EDS1 (ENHANCED DISEASE SUSCEPTIBILITY1), full-length, GAL4 activation domain fusion (protein, UniProt Q9SU72 1-623)
chain: T2 sequence
B1: the binding entry in assay [1] and in assay [2] was “binds” throughout.

B2: EDS1-3xHA (protein, UniProt Q9SU72 1-623)
chain: T2 sequence
Consider B2, for which the binding result in assay [3], in assay [4] and in assay [5] was “binds” throughout.

B3: PAD4 (PHYTOALEXIN …4), full-length, GAL4 activation domain fusion (protein, UniProt Q9S745 1-541)
chain: T1 sequence
Turning to B3, the binding entry in assay [1], in assay [6] and in assay [7] was “binds” in each case.

B4: PAD4-mCherry (protein, UniProt Q9S745 1-541)
chain: T1 sequence
Consider B4, for which, in assay [5], the binding result is “binds”.
